Our source for the binding values is patent US20240342214A1 (MEDIZINISCHE HOCHSCHULE HANNOVER, published 2024).

Results are given in words; binding and its absence hold for the method and conditions named. Some results given as binding are weak or reduced against the parent protein; the word gives no strength.

This assay has as its target T1, human ENTPD3 (Ectonucleoside triphosphate diphosphohydrolase 3) expressed on cells (human) (UniProt O75355).
T1 sequence: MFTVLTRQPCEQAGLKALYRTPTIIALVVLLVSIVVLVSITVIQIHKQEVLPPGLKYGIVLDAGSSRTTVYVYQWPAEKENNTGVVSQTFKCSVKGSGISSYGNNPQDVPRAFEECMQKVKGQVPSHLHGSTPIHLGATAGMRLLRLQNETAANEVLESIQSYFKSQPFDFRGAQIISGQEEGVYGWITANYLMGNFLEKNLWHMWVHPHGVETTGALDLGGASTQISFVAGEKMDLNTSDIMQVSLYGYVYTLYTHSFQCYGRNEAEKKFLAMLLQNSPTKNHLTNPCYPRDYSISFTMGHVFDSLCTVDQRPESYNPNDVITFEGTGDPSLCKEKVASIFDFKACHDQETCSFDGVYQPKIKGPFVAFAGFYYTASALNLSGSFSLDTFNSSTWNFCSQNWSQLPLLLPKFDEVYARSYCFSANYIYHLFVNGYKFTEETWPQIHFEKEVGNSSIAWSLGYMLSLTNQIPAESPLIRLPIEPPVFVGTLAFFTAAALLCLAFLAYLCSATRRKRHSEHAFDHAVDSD
Briefly: flow cytometry; soluble scFv on transfected HEK293T cells; anti-His PE. (In general: A flow cytometer gives signals particle by particle.)

B1: hg012-F10 scFv (scFv)
scFv: QMQLVQSGGGVVQPGRSLRLSCAASGFTFSSYGMHWVRQAPGKGLERVAVISYDGSNKYYADSVKGRFTISRDNSKNTLYLQMNSLRAEDTALYYCAKDHHPYGSSDSFDYWGQGTLVTVSSGSASAPKLEEGEFSEARVQAVVTQEPSLTVSPGGTVTLTCGSSTGAVTRGHYPYWLQQKPGQAPRTLIYDTVKKHSWTPARFSGSLVGGKAALTLSGAQPEDEADYYCLLSFIDTRYPARYVFGTGTKVTVLGQPKANPTVTLFPPSSAAAGSEQKLISEEDLSHHHHHH
notes: Soluble scFv made in E. coli, with Myc tag and His tag
As to B1, the binding result was “binds”.

B2: hg012-A8 scFv (scFv)
scFv: QVTLKESGGGLVQPGRSLRLSCAASGFTFDDYAMHWVRQAPGKGLEWVSGISWNSGSIGYADSVKGRFTISRDNAKNSLYLQMNSLRAEDTALYYCAKGANYDILTGYRKDNWFDPWGQGTLVTVSSGSASAPKLEEGEFSEARVLPVLTQPPSASGTPGQKVTISCSGSSSNIGSNYVFWYEQLPGAAPKLLMYSSNQRPSGVPDRFSGSKSGTSASLAISGLRSEDEADYYCAAWDDSLSGWVFGGGTKLTVLGQPKAAPSVTLFPPSSAAAGSEQKLISEEDLSHHHHHH
notes: as for B1
Take B2: the binding result is given as “binds”.
